Experimental data: paper PMC4512687
Results are given in words; binding and its absence hold for the method and conditions named. In cells and extracts the contact can be indirect. A yes stands for co-enrichment or nearness to the bait. Other partners may have been found.

Amino acid sequences for entries named in this document (tags omitted). Residues count along the entry.
UniProt O35625: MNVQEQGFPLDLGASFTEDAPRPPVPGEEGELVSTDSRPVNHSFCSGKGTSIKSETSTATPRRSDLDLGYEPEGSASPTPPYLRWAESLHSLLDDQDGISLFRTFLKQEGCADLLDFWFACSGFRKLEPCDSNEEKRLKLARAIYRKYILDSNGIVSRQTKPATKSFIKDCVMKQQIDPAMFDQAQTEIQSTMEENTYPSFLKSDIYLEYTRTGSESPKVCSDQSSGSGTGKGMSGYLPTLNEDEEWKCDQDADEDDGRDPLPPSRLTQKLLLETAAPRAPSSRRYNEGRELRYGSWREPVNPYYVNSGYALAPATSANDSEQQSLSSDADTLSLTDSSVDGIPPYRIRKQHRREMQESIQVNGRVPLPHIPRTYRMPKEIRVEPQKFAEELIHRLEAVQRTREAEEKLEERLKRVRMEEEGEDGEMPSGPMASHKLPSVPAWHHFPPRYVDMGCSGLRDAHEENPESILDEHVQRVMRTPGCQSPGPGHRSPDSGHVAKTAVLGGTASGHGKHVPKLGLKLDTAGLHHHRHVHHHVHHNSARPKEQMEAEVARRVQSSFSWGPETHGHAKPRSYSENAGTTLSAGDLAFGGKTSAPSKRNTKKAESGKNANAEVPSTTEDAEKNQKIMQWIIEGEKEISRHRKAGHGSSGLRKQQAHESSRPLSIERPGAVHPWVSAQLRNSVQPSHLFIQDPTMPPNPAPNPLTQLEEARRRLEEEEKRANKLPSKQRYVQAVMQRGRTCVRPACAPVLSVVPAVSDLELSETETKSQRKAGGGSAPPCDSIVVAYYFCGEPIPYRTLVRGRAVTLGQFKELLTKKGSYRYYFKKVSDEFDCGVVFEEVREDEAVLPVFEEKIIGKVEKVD
UniProt Q62261: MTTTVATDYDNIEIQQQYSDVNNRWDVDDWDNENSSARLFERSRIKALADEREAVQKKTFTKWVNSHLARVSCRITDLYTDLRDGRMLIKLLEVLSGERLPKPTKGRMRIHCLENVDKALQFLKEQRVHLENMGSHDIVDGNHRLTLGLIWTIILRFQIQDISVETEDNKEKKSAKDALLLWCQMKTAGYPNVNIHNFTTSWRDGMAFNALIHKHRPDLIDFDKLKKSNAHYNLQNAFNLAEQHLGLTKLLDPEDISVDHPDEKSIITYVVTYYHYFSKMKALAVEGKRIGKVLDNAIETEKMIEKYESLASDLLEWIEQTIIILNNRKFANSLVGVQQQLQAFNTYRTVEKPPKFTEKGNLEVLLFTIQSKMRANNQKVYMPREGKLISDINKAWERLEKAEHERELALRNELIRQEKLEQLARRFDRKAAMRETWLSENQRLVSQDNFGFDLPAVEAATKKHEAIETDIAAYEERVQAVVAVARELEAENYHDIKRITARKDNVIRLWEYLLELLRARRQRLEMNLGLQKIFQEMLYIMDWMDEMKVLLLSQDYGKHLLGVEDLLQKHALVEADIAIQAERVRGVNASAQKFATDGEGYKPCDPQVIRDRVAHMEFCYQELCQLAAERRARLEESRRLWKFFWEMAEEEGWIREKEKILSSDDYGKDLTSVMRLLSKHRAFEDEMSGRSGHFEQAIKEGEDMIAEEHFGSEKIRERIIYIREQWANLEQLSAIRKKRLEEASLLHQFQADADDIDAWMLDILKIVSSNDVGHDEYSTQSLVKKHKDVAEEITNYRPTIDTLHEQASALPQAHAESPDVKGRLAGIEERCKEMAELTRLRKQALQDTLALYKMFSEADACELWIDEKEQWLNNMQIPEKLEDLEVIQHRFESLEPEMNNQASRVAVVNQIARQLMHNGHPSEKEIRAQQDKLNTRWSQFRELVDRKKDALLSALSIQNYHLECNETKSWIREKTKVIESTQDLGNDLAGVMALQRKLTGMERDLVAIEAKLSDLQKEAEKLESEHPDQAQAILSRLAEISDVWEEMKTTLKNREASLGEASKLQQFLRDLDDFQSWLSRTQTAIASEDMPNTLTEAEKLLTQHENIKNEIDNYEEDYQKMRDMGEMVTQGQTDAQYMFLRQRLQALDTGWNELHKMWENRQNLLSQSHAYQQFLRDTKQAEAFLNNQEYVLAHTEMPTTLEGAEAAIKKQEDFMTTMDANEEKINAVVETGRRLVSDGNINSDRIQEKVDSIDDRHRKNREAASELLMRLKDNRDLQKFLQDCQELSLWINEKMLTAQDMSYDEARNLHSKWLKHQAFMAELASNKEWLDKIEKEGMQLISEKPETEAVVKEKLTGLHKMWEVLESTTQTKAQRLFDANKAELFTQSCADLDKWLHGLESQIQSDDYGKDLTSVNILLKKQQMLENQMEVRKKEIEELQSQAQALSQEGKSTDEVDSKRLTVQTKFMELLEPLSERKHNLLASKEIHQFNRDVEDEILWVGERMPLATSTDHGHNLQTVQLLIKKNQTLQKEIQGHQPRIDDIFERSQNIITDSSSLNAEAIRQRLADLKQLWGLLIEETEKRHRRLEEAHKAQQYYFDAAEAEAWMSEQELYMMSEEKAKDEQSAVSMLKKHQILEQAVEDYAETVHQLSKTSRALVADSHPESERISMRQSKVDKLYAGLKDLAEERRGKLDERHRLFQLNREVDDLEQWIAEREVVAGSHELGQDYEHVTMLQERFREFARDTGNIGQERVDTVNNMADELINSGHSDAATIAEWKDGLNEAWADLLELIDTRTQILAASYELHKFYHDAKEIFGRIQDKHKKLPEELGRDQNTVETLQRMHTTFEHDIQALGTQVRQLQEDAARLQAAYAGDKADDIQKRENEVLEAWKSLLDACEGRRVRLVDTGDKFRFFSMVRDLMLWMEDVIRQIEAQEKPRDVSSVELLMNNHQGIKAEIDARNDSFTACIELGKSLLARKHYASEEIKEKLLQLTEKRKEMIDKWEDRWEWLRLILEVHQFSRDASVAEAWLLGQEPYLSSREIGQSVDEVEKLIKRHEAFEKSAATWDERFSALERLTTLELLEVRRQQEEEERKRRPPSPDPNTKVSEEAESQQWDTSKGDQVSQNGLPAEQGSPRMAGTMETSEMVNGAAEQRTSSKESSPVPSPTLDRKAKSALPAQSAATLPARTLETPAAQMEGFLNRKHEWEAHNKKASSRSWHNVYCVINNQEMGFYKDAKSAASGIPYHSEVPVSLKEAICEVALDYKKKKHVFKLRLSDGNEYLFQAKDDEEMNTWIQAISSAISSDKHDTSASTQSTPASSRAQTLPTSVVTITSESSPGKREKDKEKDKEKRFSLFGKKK
UniProt P38647, residues 47-679: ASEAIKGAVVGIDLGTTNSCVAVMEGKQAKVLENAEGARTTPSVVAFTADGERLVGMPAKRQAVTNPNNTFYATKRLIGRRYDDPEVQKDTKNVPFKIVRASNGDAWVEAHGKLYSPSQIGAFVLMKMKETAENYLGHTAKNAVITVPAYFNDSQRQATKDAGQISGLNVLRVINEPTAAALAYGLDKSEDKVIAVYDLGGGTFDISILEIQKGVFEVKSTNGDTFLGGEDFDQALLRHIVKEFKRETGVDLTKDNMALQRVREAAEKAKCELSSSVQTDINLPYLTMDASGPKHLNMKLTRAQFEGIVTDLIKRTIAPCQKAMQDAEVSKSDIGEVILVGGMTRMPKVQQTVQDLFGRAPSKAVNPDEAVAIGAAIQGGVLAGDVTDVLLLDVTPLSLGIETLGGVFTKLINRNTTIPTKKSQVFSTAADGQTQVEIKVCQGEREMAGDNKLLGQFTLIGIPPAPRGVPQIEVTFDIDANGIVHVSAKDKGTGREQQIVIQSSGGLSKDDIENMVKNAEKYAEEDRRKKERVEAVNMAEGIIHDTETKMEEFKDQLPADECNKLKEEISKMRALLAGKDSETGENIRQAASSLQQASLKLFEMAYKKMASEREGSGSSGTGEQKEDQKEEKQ
UniProt Q7TSJ2: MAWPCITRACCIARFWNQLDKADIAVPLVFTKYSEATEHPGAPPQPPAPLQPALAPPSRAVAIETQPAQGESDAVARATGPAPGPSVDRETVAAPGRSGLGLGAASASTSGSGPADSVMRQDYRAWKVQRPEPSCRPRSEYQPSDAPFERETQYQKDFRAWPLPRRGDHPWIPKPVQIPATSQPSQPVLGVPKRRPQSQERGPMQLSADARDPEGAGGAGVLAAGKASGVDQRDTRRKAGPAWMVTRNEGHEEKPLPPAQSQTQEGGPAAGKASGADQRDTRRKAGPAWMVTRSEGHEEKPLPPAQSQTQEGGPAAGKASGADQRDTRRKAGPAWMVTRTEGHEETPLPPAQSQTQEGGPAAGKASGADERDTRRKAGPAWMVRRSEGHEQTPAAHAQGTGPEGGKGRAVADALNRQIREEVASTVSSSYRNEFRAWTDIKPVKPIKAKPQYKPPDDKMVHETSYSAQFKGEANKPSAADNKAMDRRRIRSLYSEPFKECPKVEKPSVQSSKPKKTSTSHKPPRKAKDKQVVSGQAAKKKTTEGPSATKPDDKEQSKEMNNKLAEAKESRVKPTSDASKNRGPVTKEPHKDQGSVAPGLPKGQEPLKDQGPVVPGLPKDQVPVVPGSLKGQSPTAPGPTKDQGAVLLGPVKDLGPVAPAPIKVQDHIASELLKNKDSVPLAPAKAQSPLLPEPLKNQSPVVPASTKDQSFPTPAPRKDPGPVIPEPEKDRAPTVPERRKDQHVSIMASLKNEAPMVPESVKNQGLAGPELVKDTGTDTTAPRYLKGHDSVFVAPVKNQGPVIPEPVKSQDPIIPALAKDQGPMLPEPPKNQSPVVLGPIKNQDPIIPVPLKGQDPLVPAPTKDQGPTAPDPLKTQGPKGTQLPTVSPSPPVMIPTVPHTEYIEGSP
UniProt Q61699: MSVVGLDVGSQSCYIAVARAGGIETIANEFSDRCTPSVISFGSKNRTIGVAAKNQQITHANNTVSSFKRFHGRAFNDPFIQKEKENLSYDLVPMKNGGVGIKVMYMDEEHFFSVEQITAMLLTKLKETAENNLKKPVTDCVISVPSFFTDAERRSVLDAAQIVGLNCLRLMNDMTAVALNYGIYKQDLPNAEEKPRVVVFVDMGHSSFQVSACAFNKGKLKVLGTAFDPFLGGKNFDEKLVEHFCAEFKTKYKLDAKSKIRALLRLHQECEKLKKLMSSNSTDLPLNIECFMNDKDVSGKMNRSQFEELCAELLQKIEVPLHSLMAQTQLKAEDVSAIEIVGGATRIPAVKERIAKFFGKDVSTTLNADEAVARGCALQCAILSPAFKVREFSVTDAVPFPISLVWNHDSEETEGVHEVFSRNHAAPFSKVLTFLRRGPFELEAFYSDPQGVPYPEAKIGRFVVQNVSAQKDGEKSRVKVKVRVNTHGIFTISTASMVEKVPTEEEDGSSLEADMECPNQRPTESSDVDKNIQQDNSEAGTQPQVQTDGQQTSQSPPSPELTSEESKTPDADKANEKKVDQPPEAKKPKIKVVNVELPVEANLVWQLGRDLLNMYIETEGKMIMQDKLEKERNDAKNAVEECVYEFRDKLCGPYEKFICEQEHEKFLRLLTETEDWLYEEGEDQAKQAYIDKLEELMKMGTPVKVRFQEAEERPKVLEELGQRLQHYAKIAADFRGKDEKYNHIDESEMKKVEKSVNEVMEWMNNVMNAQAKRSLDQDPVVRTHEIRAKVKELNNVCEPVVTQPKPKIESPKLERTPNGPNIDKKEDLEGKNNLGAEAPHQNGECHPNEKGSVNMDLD
UniProt P28652: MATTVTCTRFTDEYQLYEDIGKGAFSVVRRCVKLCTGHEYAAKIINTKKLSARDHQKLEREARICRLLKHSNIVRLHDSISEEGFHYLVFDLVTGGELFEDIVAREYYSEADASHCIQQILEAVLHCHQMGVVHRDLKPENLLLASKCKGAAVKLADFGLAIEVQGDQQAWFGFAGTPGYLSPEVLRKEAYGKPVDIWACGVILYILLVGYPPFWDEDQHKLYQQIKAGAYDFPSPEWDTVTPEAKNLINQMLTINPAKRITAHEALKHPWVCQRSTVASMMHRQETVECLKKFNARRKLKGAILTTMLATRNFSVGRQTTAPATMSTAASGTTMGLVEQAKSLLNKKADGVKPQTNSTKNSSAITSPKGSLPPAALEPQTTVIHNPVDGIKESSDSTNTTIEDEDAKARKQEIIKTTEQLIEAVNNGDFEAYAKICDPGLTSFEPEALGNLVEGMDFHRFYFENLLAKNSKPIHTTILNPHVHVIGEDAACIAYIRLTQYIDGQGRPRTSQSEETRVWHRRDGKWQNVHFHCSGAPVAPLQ

B1: Neurofilament medium polypeptide (protein, UniProt P08553 1-848)
chain: MSYTLDSLGNPSAYRRVTETRSSFSRVSGSPSSGFRSQSWSRGSPSTVSSSYKRSALAPRLAYSSAMLSSAESSLDFSQSSSLLNGGSGGDYKLSRSNEKEQLQGLNDRFAGYIEKVHYLEQQNKEIEAEIQALRQKQASHAQLGDAYDQEIRELRATLEMVNHEKAQVQLDSDHLEEDIHRLKERFEEEARLRDDTEAAIRALRKDIEESSMVKVELDKKVQSLQDEVAFLRSNHEEEVADLLAQIQASHITVERKDYLKTDISTALKEIRSQLECHSDQNMHQAEEWFKCRYAKLTEAAEQNKEAIRSAKEEIAEYRRQLQSKSIELESVRGTKESLERQLSDIEERHNHDLSSYQDTIQQLENELRGTKWEMARHLREYQDLLNVKMALDIEIAAYRKLLEGEETRFSTFSGSITGPLYTHRQPSVTISSKIQKTKVEAPKLKVQHKFVEEIIEETKVEDEKSEMEETLTAIAEELAASAKEEKEEAEEKEEEPEAEKSPVKSPEAKEEEEEGEKEEEEEGQEEEEEEDEGVKSDQAEEGGSEKEGSSEKDEGEQEEEEGETEAEGEGEEAEAKEEKKIEGKVEEVAVKEEIKVEKPEKAKSPMPKSPVEEVKPKPEAKAGKGEQKEEEKVEEEKKEVTKESPKEEKVEKKEEKPKDVADKKKAESPVKEKAVEEVITISKSVKVSLEKDTKEEKPQPQEKVKEKAEEEGGSEEEGSDRSPQESKKEDIAINGEVEGKEEEEQETQEKGSGREEEKGVVTNGLDVSPAEEKKGEDSSDDKVVVTKKVEKITSEGGDGATKYITKSVTVTQKVEEHEETFEEKLVSTKKVEKVTSHAIVKEVTQGD
B2: Neurofilament light polypeptide (protein, UniProt P08551 1-543)
chain: MSSFGYDPYFSTSYKRRYVETPRVHISSVRSGYSTARSAYSSYSAPVSSSLSVRRSYSSSSGSLMPSLENLDLSQVAAISNDLKSIRTQEKAQLQDLNDRFASFIERVHELEQQNKVLEAELLVLRQKHSEPSRFRALYEQEIRDLRLAAEDATNEKQALQGEREGLEETLRNLQARYEEEVLSREDAEGRLMEARKGADEAALARAELEKRIDSLMDEIAFLKKVHEEEIAELQAQIQYAQISVEMDVSSKPDLSAALKDIRAQYEKLAAKNMQNAEEWFKSRFTVLTESAAKNTDAVRAAKDEVSESRRLLKAKTLEIEACRGMNEALEKQLQELEDKQNADISAMQDTINKLENELRSTKSEMARYLKEYQDLLNVKMALDIEIAAYRKLLEGEETRLSFTSVGSITSGYSQSSQVFGRSAYSGLQSSSYLMSARSFPAYYTSHVQEEQTEVEETIEATKAEEAKDEPPSEGEAEEEEKEKEEGEEEEGAEEEEAAKDESEDTKEEEEGGEGEEEDTKESEEEEKKEESAGEEQVAKKKD
B3: Alpha-internexin (protein, UniProt P46660 1-501)
chain: MSFGSEHYLCSASSYRKVFGDSSRLSARLSGPGGSGSFRSQSLSRSNVASTAACSSASSLGLGLAYRRLPASDGLDLSQAAARTNEYKIIRTNEKEQLQGLNDRFAVFIEKVHQLETQNRALEAELAALRQRHAEPSRVGELFQRELRELRAQLEEASSARAQALLERDGLAEEVQRLRARCEEESRGREGAERALKAQQRDVDGATLARLDLEKKVESLLDELAFVRQVHDEEVAELLATLQASSQAAAEVDVAVAKPDLTSALREIRAQYESLAAKNLQSAEEWYKSKFANLNEQAARSTEAIRASREEIHEYRRQLQARTIEIEGLRGANESLERQILELEERHSAEVAGYQDSIGQLESDLRNTKSEMARHLREYQDLLNVKMALDIEIAAYRKLLEGEETRFSTGGLSISGLNPLPNPSYLLPPRILSSTASKVSSAGLSLKKEEEEEEEEASKEVSKKTSKVGEGFEETLGEAVISTKKTGKSATEESTSSSQKM
B4: Dynamin-1 (protein, UniProt P39053 1-867)
chain: MGNRGMEDLIPLVNRLQDAFSAIGQNADLDLPQIAVVGGQSAGKSSVLENFVGRDFLPRGSGIVTRRPLVLQLVNSTTEYAEFLHCKGKKFTDFEEVRLEIEAETDRVTGTNKGISPVPINLRVYSPHVLNLTLVDLPGMTKVPVGDQPPDIEFQIRDMLMQFVTKENCLILAVSPANSDLANSDALKIAKEVDPQGQRTIGVITKLDLMDEGTDARDVLENKLLPLRRGYIGVVNRSQKDIDGKKDITAALAAERKFFLSHPSYRHLADRMGTPYLQKVLNQQLTNHIRDTLPGLRNKLQSQLLSIEKEVDEYKNFRPDDPARKTKALLQMVQQFAVDFEKRIEGSGDQIDTYELSGGARINRIFHERFPFELVKMEFDEKELRREISYAIKNIHGIRTGLFTPDMAFETIVKKQVKKIREPCLKCVDMVISELISTVRQCTKKLQQYPRLREEMERIVTTHIREREGRTKEQVMLLIDIELAYMNTNHEDFIGFANAQQRSNQMNKKKTSGNQDEILVIRKGWLTINNIGIMKGGSKEYWFVLTAENLSWYKDDEEKEKKYMLSVDNLKLRDVEKGFMSSKHIFALFNTEQRNVYKDYRQLELACETQEEVDSWKASFLRAGVYPERVGDKEKASETEENGSDSFMHSMDPQLERQVETIRNLVDSYMAIVNKTVRDLMPKTIMHLMINNTKEFIFSELLANLYSCGDQNTLMEESAEQAQRRDEMLRMYHALKEALSIIGDINTTTVSTPMPPPVDDSWLQVQSVPAGRRSPTSSPTPQRRAPAVPPARPGSRGPAPGPPPAGSALGGAPPVPSRPGASPDPFGPPPQVPSRPNRAPPGVPSLGAWRLNSPQGKHENRAGKARL

biological target: Axin (mouse (endogenous in mouse brain)) (UniProt O35625); experiment: affinity purification with mass spectrometry; co-immunoprecipitation with Axin antibody from 2 mg protein of the washed synaptosomal fraction (P2') of whole mouse brain; normal rabbit IgG as control; SDS-PAGE, trypsin digestion, mass spectrometry; unique peptide count >=2 considered positive

| binding | Molecule |
| --- | --- |
| binds | Spectrin beta chain, non-erythrocytic 1 (from UniProt Q62261 1-2363) |
| binds | Spectrin alpha chain, non-erythrocytic 1 (from UniProt P16546 1-2472) |
| binds | Transforming acidic coiled-coil-containing protein 1 (from UniProt Q6Y685 1-774) |
| binds | Stress-70 protein, mitochondrial (from UniProt P38647 47-679) |
| binds | Microtubule-associated protein 6 (from UniProt Q7TSJ2 1-906) |
| binds | Heat shock protein 105 kDa (from UniProt Q61699 1-858) |
| binds | Spna2 protein (from UniProt P16546) |
| binds | Heat shock-related 70 kDa protein 2 (from UniProt P17156 1-633) |
| binds | Tyrosine-protein phosphatase non-receptor type 11 (from UniProt P35235 1-593) |
| binds | Calcium/calmodulin-dependent protein kinase type II subunit beta (from UniProt P28652 1-542) |
| binds | Sodium/potassium-transporting ATPase subunit alpha-2 (from UniProt Q6PIE5 1-1020) |
| binds | Heat shock protein 1-like (from UniProt P16627 1-641) |
| binds | B1 |
| binds | B2 |
| binds | B3 |
| binds | B4 |
